This assay has as its target recombinant human epidermal growth factor (EGF) (human). Nature of the assay: ELISA; 2 μg/ml EGF in PBS coated overnight at room temperature on high protein-binding ELISA plates, blocked with 0.1% casein; dilution curve of biotinylated peptide at 37 °C; detected with peroxidase-conjugated streptavidin, OD450; both purified.

Results are given in words; binding and its absence hold for the method and conditions named. A result given as binding can be weak or reduced; the word gives no strength.

B1: NH2-terminally biotinylated CXCL4^47–70 peptide (peptide, UniProt P02776 78-101)
peptide: NGRKICLDLQAPLYKKIIKKLLES
modifications: biotin on the N-terminus (exactly one biotin group)
For the molecule B1, the binding result is given as “binds”.

The values are drawn from PMC4279419, “Angiostatic, tumor inflammatory and anti-tumor effects of CXCL4^47–70 and CXCL4L1^47–70 in an EGF-dependent breast cancer model” (Oncotarget, 2014).
